Taken from: PubChem BioAssay AID720505 (Drosophila RNAi Screening Center, 2013)
The deposit covers about 20,000 reagents; shown is an unselected part of those that have a named target and a result. Over the whole deposit, about 2,100 (10%) are marked active. 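Raw plate signals without normalisation; calls rest on control-based scores that were not deposited; replicate 2 separates called from uncalled poorly.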 The numbers tell different reagents against one gene apart. Names joined by + are all predicted targets of the reagent. Reagent sequences are not shown. Not stated in the record: the amount of reagent, the time to read-out.

- Screen: 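Knock-downs that reduce calcium influx once internal stores are emptied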 (primary screen)
- Cells: Drosophila S2R+ cells
- Knock-down reagent: long dsRNA against Drosophila genes
- Challenge: thapsigargin (2 µM) in calcium-free buffer to empty internal stores, then 2 mM calcium added back
- Measurement: 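Stores emptied by 2 µM thapsigargin without calcium, then 2 mM calcium re-added; fluo-4 fluorescence followed by FLIPR in 384-well plates, per-well averaged endpoint, raw; two screen passes, some wells retested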
- Reading the numbers: calcium signal and retest calcium signal: higher = more calcium entry after store depletion
- Call rule: 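Knock-downs counted as hits when calcium entry dropped relative to STIM1 positive and Rho1 negative controls present on each plate; roughly 1500 genes called, with reductions of differing size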
- Meaning of the calls: active = called as lowering calcium entry; inactive = not called

no.	gene	reagent	calcium signal, replicate 1	calcium signal, replicate 2	retest calcium signal, replicate 1	retest calcium signal, replicate 2	Outcome
1	Adf1 (Adh transcription factor 1)	1	104	87.2			inactive
2	Adf1 (Adh transcription factor 1)	2	187	90.2			inactive
3	Gr58a (Gustatory receptor 58a)	1	120	6284			inactive
4	Pomp	1	45.2	66.6			active
5	CG30187	1	157	143			inactive
6	CG9106	1	92.5	102			inactive
7	RabX4	1	114	278			inactive
8	CG9667	1	70.1	189			active
9	Rad9	1	122	78.3			inactive
10	CG15743	1	109	84.8			inactive
11	ND-B8 (NADH dehydrogenase (ubiquinone) B8 subunit)	1	74.1	126			active
12	CG10996	1	63.5	78.5			active
13	CG7692	1	69.1	131			inactive
14	Ntf-2 (Nuclear transport factor-2)	1	235	109			inactive
15	dj (don juan)	1	128	246			inactive
16	CG42399	1	186	123			inactive
17	CG42399	2	152	105			inactive
18	CG17929	1	85.5	220			inactive
19	CG8051	1	222	109			inactive
20	Mgat4b	1	122	143			inactive
21	CG13511	1	97.1	177			inactive
22	CG12831	1	132	121			inactive
23	CG8300	1	144	134			inactive
24	CG8300	2	99.8	143			inactive
25	Ciz1 (Ciz1 zinc finger protein)	1	82.5	97.6			inactive
26	CG14082	1	73	135			inactive
27	S6kII (Ribosomal protein S6 kinase II)	1	79.1	166			active
28	CG12012	1	83	86.8			inactive
29	Srx (Sulfiredoxin)	1	64	120			active
30	Mettl3 (Methyltransferase like 3)	1	267	181			inactive
31	CG12795	1	158	85.6			inactive
32	Pep (Protein on ecdysone puffs)	1	103	98			inactive
33	JMJD6 (Jumonji domain containing 6)	1	203	273			inactive
34	Cap-G (Chromosome associated protein G)	1	86.3	146			inactive
35	Cap-G (Chromosome associated protein G)	2	103	118			inactive
36	Cap-G (Chromosome associated protein G)	3	109	72.9			inactive
37	CG8545	1	131	134			inactive
38	CG32117	1	153	101			inactive
39	Ugt37D1 (UDP-glycosyltransferase family 37 member D1)	1	117	89.3			inactive
40	Unc-115a (Uncoordinated 115a)	1					inactive
41	hrg (hiiragi)	1	168	114			inactive
42	CG9485	1	181	82.3			inactive
43	Vta1 (Vesicle trafficking 1)	1	62.9	76	74.5	91.1	inactive
44	Vta1 (Vesicle trafficking 1)	2	96.1	99.6			inactive
45	Lime (Linking immunity and metabolism)	1	80	194			inactive
46	Diedel	1	138	122			inactive
47	ND-MNLL (NADH dehydrogenase (ubiquinone) MNLL subunit)	1	72.3	133			active
48	CG14696	1	182	80.3			inactive
49	tsl (torso-like)	1	156	154			inactive
50	CG3587	1	87.6	85.1	74.7	72.5	inactive
51	CG3587	2	78.2	244			inactive
52	CG10631	1	97.1	105			inactive
53	cni (cornichon)	1	62.3	70.5			active
54	Fer2 (48 related 2)	1	101	212			inactive
55	ana3 (anastral spindle 3)	1	145	174			inactive
56	msn (misshapen)	1	84	101			inactive
57	CG10237	1	110	144			inactive
58	CG5608	1	95.3	125			inactive
59	CG32201	1	86.9	157			inactive
60	mts (microtubule star)	1	117	186			inactive
61	Dark (Death-associated APAF1-related killer)	1	68.6	122			active
62	CG14695	1	137	100			inactive
63	CG7215 + Prx5	1	204	144			inactive
64	CG7215 + Prx5	2	111	301			inactive
65	CG42362 + CG42363	1	86.6	89.6			inactive
66	LanB2 (Laminin B2)	1	87.4	99.1			inactive
67	Su(P) (Suppressor of ref(2)P sterility)	1	75.8	124			inactive
68	CG14292	1	64.5	81.1			active
69	Tim10 + CG42497	1	79.3	105			inactive
70	CG30089	1	123	144	95.8	103	inactive
71	CG30089	2	38.8	111			active
72	CG30089	3	128	136			inactive
73	CG30089	4	98.4	146			inactive
74	CG30089	5	61.4	194			inactive
75	Mal-A5 (Maltase A5)	1	183	127			inactive
76	Cyp49a1 (Cytochrome P450 49a1)	1	136	169			inactive
77	Cyp49a1 (Cytochrome P450 49a1)	2	113	146			inactive
78	CG11912	1	114	173			inactive
79	REPTOR (Repressed by TOR)	1	168	183			inactive
80	Nufip	1	97.1	108			inactive
81	Cpr31A (Cuticular protein 31A)	1	90.8	102			inactive
82	Ssdp (Sequence-specific single-stranded DNA-binding protein)	1	170	169			inactive
83	beag	1	139	105			inactive

11 of these entries, reformatted.
{"gene":"cni (cornichon)","reagent":1,"calcium signal, replicate 1":62.3,"calcium signal, replicate 2":70.5,"Outcome":"active"}
{"gene":"Fer2 (48 related 2)","reagent":1,"calcium signal, replicate 1":101,"calcium signal, replicate 2":212,"Outcome":"inactive"}
{"gene":"ana3 (anastral spindle 3)","reagent":1,"calcium signal, replicate 1":145,"calcium signal, replicate 2":174,"Outcome":"inactive"}
{"gene":"msn (misshapen)","reagent":1,"calcium signal, replicate 1":84,"calcium signal, replicate 2":101,"Outcome":"inactive"}
{"gene":"CG10237","reagent":1,"calcium signal, replicate 1":110,"calcium signal, replicate 2":144,"Outcome":"inactive"}
{"gene":"CG5608","reagent":1,"calcium signal, replicate 1":95.3,"calcium signal, replicate 2":125,"Outcome":"inactive"}
{"gene":"CG32201","reagent":1,"calcium signal, replicate 1":86.9,"calcium signal, replicate 2":157,"Outcome":"inactive"}
{"gene":"mts (microtubule star)","reagent":1,"calcium signal, replicate 1":117,"calcium signal, replicate 2":186,"Outcome":"inactive"}
{"gene":"Dark (Death-associated APAF1-related killer)","reagent":1,"calcium signal, replicate 1":68.6,"calcium signal, replicate 2":122,"Outcome":"active"}
{"gene":"CG14695","reagent":1,"calcium signal, replicate 1":137,"calcium signal, replicate 2":100,"Outcome":"inactive"}
{"gene":"CG7215 + Prx5","reagent":1,"calcium signal, replicate 1":204,"calcium signal, replicate 2":144,"Outcome":"inactive"}
